± gives the standard deviation of the averaged measurements. Some of the results follow.
What follows are targets tested with Nc1nc2c(ncn2[C@@H]2O[C@H](COP(=O)(O)OP(=O)(O)OP(=O)(O)O)[C@@H](O)[C@H]2O)c(=O)[nH]1 [guanosine triphosphate] (assay: NP40-soluble protein abundance relative to vehicle (solubility fold change) (ratio); higher = more soluble protein in presence of GTP). Settings: concentration: 0.5mM.
Summary of the method: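 Jurkat crude lysate (Dounce-homogenised) was treated with eight concentrations from 0.1 to 10 mM for 10 min at room temperature, then 3 min at 37 °C. It was solubilised with 0.8% NP40 and benzonase (60 min, 4 °C) and ultracentrifuged, and the supernatant was TMT-labelled for LC-MS/MS. Intensities were vsn-normalised, and the value is the fold change against the NP40-processed vehicle per replicate, from three independent experiments.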

Chains of the proteins cited; added tags and fusions are not shown. Lines headed by an entry give the natural chain unless they say otherwise; changes in a name come on top.
UniProt Q32P51: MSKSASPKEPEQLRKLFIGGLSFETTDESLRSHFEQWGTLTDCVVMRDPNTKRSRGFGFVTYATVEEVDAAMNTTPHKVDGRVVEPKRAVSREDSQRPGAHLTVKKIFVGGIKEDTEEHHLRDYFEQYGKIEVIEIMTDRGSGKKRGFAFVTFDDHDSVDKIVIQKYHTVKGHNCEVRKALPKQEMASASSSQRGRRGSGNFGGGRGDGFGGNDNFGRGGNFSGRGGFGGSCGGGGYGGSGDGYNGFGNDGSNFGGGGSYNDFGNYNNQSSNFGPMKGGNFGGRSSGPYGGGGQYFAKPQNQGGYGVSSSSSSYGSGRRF
UniProt Q14687: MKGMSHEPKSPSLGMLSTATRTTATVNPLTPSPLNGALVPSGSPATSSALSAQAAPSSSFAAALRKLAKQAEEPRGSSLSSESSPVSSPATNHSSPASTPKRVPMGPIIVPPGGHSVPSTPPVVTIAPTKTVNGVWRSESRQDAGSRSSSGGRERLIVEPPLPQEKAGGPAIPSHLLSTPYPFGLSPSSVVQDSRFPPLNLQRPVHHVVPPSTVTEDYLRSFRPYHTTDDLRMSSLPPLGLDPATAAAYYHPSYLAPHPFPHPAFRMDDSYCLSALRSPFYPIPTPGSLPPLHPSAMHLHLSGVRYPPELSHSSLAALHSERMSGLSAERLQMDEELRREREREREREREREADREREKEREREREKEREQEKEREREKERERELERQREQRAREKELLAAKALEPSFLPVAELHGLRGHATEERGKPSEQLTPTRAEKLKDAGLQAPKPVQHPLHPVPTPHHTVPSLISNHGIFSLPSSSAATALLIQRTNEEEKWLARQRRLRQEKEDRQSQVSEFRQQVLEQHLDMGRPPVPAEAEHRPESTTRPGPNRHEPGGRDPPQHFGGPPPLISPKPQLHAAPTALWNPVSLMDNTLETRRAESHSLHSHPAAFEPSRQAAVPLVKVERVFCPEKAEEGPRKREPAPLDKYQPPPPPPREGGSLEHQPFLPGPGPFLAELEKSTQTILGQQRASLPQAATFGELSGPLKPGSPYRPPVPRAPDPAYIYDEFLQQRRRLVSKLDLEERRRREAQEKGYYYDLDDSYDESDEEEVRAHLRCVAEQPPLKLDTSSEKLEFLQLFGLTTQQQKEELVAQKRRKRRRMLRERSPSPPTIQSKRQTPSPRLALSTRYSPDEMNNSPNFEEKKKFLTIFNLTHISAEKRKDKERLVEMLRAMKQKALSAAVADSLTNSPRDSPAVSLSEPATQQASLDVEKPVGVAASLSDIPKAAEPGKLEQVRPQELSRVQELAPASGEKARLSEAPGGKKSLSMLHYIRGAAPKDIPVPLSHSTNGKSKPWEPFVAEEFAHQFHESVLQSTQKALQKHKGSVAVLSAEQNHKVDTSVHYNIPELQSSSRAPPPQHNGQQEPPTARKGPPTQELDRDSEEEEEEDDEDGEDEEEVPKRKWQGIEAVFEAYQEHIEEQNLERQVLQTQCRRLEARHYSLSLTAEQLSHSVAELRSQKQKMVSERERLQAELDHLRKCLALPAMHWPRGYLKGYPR
UniProt Q15853: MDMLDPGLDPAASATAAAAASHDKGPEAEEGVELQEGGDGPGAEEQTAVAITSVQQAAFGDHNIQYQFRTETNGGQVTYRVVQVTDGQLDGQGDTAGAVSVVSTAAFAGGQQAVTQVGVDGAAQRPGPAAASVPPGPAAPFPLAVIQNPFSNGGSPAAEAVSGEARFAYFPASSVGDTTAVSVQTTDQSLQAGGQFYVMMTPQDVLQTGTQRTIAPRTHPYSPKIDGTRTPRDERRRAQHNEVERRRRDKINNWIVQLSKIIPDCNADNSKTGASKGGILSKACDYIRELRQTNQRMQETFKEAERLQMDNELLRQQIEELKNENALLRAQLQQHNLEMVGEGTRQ
UniProt Q14694, whole entry: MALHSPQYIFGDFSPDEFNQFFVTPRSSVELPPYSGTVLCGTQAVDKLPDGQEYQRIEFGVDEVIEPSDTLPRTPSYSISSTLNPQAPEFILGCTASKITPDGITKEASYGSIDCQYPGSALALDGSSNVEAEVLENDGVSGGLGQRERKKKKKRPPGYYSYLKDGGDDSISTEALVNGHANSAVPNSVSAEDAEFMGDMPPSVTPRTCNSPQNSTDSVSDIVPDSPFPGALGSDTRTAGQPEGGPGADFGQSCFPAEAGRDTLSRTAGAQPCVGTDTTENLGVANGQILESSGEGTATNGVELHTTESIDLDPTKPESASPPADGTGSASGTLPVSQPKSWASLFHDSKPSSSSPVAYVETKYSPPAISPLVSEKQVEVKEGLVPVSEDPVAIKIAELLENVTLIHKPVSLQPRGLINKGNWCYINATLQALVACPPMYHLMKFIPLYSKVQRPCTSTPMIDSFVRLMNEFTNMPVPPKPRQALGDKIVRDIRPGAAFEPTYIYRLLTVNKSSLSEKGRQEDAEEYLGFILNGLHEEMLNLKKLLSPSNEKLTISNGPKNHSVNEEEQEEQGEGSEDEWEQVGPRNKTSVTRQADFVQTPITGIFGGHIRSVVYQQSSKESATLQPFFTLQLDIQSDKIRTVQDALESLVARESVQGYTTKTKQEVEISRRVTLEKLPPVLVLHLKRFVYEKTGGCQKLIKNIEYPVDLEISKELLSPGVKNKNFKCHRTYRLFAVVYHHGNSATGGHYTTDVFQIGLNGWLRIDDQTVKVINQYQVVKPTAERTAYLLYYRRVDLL
UniProt Q15545, whole entry: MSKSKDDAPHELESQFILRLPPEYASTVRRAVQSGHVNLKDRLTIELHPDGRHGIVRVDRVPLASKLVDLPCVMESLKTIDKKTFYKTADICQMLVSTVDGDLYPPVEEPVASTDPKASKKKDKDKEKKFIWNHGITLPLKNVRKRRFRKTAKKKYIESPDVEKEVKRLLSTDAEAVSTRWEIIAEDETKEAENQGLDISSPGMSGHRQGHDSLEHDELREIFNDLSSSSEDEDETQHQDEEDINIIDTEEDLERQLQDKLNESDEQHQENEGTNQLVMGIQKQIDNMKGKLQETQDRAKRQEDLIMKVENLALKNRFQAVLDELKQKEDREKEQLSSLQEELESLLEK
UniProt Q56VL3: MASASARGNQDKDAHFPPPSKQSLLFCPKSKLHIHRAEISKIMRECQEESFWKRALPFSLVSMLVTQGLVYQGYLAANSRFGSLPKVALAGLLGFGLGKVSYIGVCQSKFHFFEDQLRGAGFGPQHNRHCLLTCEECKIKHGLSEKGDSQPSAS
UniProt Q15054: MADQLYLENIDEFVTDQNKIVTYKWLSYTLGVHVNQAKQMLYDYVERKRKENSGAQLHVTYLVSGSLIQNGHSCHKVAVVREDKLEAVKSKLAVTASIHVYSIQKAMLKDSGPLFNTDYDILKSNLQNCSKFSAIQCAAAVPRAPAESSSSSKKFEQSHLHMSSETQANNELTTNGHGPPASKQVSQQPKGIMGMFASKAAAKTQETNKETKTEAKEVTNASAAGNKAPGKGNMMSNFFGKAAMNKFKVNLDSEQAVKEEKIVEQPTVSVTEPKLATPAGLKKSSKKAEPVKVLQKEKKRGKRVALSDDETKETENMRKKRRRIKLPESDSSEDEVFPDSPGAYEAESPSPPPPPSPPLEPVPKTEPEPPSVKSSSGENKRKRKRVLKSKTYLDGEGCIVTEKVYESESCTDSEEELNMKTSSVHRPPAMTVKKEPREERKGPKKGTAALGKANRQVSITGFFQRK
UniProt Q15208: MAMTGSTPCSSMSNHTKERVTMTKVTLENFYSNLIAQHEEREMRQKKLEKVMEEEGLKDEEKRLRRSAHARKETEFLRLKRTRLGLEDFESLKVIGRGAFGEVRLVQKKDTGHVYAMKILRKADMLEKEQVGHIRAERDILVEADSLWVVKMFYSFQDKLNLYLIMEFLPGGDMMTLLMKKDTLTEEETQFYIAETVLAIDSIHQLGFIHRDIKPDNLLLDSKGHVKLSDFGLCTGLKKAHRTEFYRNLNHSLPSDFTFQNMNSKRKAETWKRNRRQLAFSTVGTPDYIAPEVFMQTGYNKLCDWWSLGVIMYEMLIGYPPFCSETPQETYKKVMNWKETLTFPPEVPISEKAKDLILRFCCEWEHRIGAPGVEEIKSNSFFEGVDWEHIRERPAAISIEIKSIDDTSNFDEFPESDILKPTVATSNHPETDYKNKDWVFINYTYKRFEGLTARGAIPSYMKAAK
UniProt Q16666: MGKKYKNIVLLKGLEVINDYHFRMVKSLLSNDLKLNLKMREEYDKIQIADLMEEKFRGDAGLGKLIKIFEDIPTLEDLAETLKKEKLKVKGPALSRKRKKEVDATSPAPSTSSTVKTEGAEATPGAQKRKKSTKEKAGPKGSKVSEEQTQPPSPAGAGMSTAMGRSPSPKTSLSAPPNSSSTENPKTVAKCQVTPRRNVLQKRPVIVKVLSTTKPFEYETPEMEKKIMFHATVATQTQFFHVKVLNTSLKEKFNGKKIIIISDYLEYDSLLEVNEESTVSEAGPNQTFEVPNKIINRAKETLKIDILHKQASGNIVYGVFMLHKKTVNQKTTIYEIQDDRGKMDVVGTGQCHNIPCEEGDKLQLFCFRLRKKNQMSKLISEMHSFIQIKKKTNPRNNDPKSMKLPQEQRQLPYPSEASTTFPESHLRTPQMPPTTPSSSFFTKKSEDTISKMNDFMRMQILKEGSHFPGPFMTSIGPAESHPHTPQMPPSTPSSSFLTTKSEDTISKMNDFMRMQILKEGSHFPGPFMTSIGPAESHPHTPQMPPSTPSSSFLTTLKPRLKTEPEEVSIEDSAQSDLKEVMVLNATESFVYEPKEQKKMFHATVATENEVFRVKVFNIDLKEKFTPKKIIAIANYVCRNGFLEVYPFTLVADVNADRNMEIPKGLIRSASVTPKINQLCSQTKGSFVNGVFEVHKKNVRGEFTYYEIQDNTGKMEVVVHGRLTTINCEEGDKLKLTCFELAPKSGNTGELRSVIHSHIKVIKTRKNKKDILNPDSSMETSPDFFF
UniProt Q49B96: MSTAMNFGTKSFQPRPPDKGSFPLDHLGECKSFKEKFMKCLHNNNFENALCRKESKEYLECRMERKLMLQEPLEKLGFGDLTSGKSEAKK
UniProt Q15042: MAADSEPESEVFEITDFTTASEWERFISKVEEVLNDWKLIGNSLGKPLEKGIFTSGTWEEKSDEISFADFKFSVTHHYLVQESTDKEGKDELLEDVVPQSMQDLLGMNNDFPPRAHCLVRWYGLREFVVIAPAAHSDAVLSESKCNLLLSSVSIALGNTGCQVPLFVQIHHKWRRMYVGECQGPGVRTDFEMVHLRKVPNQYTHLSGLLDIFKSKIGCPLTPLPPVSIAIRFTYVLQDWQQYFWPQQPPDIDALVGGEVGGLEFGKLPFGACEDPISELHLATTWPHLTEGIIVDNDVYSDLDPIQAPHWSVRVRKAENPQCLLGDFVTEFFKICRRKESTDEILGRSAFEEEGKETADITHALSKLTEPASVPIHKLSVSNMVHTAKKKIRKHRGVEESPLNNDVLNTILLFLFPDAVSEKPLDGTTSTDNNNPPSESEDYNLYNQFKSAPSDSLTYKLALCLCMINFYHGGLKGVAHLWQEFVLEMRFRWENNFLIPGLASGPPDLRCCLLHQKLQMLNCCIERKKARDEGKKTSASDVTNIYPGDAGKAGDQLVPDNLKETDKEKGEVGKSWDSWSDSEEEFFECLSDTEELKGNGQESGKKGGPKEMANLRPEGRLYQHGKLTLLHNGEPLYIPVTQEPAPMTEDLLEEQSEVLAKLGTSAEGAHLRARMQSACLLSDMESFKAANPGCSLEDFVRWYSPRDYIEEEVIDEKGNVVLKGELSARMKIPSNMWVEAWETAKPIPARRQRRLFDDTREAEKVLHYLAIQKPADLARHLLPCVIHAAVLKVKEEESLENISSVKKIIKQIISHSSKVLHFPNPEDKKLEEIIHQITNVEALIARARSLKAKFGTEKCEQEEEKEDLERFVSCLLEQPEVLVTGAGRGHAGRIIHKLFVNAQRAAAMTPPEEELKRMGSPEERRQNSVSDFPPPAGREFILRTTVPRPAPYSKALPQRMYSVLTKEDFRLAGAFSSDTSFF
UniProt Q5SWX8: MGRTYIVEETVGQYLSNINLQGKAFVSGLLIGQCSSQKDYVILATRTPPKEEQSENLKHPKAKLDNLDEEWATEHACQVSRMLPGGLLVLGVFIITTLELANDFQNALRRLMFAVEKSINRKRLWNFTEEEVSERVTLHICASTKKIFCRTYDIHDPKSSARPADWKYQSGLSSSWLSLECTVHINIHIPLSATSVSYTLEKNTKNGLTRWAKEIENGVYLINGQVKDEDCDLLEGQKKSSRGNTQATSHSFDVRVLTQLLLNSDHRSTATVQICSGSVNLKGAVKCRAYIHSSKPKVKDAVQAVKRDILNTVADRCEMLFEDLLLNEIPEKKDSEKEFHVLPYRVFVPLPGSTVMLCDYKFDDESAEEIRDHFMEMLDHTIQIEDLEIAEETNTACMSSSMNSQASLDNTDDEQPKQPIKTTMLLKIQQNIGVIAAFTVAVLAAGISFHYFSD

Target	NP40-soluble protein abundance
HNRNPA1L2 (UniProt Q32P51)	1.32 ± 0.58
PSME4 (UniProt Q14997)	1.14 ± 0.13
TBC1D10B (UniProt Q4KMP7)	1.05 ± 0.05
UniProt Q15438 and related entries	1.02 ± 0.047
KPNB1 (UniProt Q14974)	0.988 ± 0.03
PPP2R5A (UniProt Q15172)	0.993 ± 0.046
UBAP2 (UniProt Q5T6F2)	0.928 ± 0.04
SF3A1 (UniProt Q15459)	1.03 ± 0.043
ADRM1 (UniProt Q16186)	0.96 ± 0.069
UniProt Q14687 and related entries	1.05 ± 0.041
UniProt Q15542 and related entries	1.12 ± 0.12
SF3A2 (UniProt Q15428)	1.01 ± 0.0056
UniProt Q15717 and related entries	0.9876 ± 0.0098
UniProt Q15853 and related entries	0.943 ± 0.074
UniProt Q52LJ0-2	0.868 ± 0.042
UniProt Q15796 and related entries	0.925 ± 0.054
UniProt Q14694 and related entries	1.04 ± 0.025
UniProt Q15084 and related entries	0.928 ± 0.062
UniProt Q15545 and related entries	0.969 ± 0.065

Same assay, conditions: concentration: 1mM

Target	NP40-soluble protein abundance
ZNF326 (UniProt Q5BKZ1)	1.27 ± 0.21
FKBP15 (UniProt Q5T1M5)	1.02 ± 0.035
RALBP1 (UniProt Q15311)	0.991 ± 0.054
C9orf64 (UniProt Q5T6V5)	0.945 ± 0.051
UniProt Q15652 and related entries	1.06 ± 0.042
OCIAD2 (UniProt Q56VL3)	0.935 ± 0.026
UniProt Q4V328 and related entries	0.975 ± 0.092
UniProt Q15054 and related entries	0.95 ± 0.064
BRD3 (UniProt Q15059)	1.08 ± 0.11
UniProt Q15329 and related entries	0.957 ± 0.17
UniProt Q15208	0.946 ± 0.14
UniProt Q5T3I0 and related entries	1.13 ± 0.21
IFI16 (UniProt Q16666)	1.14 ± 0.013
UniProt Q15650 and related entries	1.09 ± 0.055
COX19 (UniProt Q49B96)	1.12 ± 0.13
TRIP11 (UniProt Q15643)	0.994 ± 0.059
UniProt Q15042	1.05 ± 0.026
UniProt Q5SWX8 and related entries	0.997 ± 0.086
PUS10 (UniProt Q3MIT2)	1.03 ± 0.11

Target	NP40-soluble protein abundance
HNRNPA1L2 (UniProt Q32P51)	1.8 ± 0.79
PSME4 (UniProt Q14997)	1.12 ± 0.28
TBC1D10B (UniProt Q4KMP7)	1.01 ± 0.054
UniProt Q15438 and related entries	0.973 ± 0.073
KPNB1 (UniProt Q14974)	1.01 ± 0.035
PPP2R5A (UniProt Q15172)	0.939 ± 0.011
UBAP2 (UniProt Q5T6F2)	0.97 ± 0.048
SF3A1 (UniProt Q15459)	1.05 ± 0.045
ADRM1 (UniProt Q16186)	1.09 ± 0.063
UniProt Q14687 and related entries	1.12 ± 0.048
UniProt Q15542 and related entries	1.15 ± 0.091
SF3A2 (UniProt Q15428)	1.07 ± 0.062
UniProt Q15717 and related entries	0.933 ± 0.011
UniProt Q15853 and related entries	0.952 ± 0.078
UniProt Q52LJ0-2	0.937 ± 0.023
UniProt Q15796 and related entries	0.906 ± 0.051
UniProt Q14694 and related entries	1.04 ± 0.07
UniProt Q15084 and related entries	0.9 ± 0.049
UniProt Q15545 and related entries	1.12 ± 0.087

— the supplement of paper PMC6411743
